The supplement of paper PMC10849652
Some of the results follow.

Amino acid sequences for entries named in this document (tags omitted). A change or cut given only in a name is not applied to a line headed by its entry.
UniProt P31350, whole entry, looked up: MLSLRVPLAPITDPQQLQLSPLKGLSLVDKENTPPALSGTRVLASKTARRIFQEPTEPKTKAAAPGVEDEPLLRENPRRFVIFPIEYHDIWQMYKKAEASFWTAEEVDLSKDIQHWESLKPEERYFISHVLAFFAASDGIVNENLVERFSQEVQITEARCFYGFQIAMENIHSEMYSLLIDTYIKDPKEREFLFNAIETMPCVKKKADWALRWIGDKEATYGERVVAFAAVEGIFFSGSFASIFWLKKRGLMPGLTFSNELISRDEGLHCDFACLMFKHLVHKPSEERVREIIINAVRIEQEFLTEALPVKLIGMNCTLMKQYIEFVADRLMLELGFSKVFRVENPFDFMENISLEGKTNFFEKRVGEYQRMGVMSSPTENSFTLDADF
UniProt O75695: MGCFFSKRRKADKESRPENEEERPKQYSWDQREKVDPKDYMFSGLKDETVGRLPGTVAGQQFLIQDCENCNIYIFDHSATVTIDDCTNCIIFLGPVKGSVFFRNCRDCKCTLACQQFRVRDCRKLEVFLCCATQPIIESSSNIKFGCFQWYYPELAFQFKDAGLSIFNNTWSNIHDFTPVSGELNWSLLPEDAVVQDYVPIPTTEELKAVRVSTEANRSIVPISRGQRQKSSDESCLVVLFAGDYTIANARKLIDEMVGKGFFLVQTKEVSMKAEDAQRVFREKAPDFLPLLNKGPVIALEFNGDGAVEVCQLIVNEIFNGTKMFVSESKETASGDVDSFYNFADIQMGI
UniProt P10301: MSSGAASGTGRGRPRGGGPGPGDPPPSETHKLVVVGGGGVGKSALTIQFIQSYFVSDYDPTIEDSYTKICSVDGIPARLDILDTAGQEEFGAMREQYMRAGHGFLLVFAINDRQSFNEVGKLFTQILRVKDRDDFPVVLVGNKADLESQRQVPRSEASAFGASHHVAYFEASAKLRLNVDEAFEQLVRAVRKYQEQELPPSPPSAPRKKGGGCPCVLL
UniProt P04843: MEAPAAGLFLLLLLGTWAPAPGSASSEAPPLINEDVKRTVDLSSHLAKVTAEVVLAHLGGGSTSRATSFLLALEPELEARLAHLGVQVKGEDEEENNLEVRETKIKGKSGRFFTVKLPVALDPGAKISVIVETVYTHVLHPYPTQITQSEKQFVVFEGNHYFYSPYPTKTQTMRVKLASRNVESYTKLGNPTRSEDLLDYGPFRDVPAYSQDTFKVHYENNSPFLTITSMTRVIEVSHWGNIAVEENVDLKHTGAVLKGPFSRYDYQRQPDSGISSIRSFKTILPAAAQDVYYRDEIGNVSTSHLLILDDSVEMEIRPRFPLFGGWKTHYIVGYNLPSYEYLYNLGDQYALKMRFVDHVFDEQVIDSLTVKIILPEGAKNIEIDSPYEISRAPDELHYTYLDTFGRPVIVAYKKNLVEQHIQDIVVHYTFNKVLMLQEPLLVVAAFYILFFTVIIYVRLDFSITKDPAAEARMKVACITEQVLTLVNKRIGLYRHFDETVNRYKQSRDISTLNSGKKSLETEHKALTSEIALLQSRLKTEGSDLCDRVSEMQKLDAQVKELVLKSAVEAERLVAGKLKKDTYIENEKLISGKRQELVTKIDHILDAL
UniProt P05387, whole entry, looked up: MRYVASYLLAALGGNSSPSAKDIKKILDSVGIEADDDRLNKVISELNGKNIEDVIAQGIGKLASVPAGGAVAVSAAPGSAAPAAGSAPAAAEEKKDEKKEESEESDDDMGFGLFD
UniProt Q92766: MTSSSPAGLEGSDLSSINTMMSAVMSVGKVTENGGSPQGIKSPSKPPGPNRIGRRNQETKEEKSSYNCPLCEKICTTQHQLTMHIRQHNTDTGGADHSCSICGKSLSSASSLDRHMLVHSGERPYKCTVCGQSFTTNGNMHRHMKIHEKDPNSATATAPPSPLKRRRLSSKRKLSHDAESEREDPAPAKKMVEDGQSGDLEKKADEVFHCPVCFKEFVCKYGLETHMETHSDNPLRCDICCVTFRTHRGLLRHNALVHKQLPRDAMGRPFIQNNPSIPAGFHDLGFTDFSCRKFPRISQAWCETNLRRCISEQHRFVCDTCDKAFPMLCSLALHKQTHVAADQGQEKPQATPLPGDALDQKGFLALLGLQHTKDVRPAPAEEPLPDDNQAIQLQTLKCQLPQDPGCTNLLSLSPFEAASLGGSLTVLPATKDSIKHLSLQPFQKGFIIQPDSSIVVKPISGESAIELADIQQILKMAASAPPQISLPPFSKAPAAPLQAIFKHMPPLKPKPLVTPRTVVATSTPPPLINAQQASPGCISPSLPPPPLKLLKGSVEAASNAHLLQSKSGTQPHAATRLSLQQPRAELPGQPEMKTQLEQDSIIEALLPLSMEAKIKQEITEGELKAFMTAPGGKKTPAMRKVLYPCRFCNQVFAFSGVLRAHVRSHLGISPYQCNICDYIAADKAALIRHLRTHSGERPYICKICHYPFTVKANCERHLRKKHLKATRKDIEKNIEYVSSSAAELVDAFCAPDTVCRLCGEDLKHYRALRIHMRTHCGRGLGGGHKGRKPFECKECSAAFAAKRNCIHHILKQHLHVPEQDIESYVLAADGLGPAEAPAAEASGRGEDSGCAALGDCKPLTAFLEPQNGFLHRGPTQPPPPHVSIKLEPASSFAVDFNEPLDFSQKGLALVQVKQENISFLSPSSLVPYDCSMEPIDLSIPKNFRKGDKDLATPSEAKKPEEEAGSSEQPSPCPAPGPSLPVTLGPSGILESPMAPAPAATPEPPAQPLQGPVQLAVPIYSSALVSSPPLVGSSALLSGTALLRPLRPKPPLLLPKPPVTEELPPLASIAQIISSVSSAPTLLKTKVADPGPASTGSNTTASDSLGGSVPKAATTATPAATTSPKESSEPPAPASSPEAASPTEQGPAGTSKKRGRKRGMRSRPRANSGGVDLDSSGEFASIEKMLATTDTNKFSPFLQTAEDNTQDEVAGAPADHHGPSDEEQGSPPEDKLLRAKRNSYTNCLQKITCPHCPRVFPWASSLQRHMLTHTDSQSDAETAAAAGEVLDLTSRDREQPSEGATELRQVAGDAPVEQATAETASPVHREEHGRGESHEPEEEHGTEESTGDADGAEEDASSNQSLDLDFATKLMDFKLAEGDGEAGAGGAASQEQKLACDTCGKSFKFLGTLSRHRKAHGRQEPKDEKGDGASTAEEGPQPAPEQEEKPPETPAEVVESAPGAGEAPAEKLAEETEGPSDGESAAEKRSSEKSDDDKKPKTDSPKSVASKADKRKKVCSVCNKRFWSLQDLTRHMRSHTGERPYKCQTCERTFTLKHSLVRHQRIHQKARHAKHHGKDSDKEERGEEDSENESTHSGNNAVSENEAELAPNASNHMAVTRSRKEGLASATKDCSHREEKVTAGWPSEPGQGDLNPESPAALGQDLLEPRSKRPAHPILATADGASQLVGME
UniProt Q86WX3: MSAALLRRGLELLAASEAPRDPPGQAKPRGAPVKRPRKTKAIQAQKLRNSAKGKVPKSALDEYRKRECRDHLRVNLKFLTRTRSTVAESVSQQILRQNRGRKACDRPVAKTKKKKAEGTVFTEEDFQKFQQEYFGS
UniProt Q5VZM2, whole entry, looked up: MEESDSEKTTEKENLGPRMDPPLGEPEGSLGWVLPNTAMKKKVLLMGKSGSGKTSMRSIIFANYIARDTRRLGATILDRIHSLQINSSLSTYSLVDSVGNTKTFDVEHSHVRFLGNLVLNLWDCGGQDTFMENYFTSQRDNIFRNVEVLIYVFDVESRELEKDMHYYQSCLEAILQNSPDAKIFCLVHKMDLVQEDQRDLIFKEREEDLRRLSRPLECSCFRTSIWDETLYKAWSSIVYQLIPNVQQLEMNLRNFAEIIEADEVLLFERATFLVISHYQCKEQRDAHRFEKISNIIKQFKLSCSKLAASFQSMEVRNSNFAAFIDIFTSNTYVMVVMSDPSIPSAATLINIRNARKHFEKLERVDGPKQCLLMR
UniProt Q9NQG5: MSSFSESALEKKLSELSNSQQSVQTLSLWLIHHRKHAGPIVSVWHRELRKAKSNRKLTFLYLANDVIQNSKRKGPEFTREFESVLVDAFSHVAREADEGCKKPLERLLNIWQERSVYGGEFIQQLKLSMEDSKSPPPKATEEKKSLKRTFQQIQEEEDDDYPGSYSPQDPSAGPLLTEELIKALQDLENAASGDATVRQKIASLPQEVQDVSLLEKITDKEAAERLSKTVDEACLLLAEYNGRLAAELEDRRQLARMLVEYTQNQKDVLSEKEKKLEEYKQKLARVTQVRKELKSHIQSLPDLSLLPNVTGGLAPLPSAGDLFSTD
UniProt O75150, whole entry, looked up: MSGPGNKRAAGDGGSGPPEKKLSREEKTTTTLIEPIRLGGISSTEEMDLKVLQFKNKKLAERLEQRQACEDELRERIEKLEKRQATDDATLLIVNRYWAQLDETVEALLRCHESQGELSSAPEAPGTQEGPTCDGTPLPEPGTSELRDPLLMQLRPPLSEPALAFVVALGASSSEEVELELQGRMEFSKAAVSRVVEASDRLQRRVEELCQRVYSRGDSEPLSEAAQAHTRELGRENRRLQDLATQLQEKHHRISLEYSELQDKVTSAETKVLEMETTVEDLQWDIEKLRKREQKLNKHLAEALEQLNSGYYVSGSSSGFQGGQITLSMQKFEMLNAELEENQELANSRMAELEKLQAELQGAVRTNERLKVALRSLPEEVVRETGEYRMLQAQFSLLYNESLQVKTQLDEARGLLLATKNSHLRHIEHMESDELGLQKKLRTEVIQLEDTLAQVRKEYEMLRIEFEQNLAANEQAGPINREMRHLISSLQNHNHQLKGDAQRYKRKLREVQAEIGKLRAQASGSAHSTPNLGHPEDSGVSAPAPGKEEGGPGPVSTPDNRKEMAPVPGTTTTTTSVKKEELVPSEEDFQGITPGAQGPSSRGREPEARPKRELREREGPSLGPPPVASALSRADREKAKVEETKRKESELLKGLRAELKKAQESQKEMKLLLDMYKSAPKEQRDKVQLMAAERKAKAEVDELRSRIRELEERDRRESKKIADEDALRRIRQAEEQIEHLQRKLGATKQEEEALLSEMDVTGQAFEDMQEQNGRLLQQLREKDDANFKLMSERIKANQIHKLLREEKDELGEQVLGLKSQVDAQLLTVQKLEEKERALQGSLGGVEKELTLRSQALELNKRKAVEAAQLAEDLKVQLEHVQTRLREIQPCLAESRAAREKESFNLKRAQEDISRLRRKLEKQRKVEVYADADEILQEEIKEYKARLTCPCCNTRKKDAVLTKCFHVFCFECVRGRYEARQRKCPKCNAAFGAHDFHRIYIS
UniProt Q8N5L8: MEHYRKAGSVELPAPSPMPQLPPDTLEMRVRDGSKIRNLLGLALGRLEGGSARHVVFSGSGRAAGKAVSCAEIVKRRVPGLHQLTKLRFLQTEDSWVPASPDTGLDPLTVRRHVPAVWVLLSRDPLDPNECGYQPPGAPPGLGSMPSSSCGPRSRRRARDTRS
UniProt Q92901: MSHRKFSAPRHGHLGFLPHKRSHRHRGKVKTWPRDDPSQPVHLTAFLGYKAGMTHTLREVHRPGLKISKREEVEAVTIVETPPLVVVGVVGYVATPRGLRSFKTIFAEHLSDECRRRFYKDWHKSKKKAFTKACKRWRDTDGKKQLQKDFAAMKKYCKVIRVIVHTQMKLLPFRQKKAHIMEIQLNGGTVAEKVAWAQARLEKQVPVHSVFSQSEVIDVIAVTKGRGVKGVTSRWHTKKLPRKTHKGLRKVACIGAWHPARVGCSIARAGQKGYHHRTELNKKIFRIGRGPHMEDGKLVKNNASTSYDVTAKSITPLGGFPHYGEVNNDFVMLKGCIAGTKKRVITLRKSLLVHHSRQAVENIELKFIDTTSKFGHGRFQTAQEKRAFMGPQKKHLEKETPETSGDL
UniProt Q8TA86: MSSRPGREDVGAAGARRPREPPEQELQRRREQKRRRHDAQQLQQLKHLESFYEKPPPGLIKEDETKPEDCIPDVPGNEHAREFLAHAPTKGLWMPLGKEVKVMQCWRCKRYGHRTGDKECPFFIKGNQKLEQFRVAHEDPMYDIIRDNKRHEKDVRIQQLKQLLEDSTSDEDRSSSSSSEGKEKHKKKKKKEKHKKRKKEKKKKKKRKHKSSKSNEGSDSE

Assays:
Assay in all cases: log2 fold change, soluble protein after heating vs DMSO (PISA); higher = thermal stabilisation; K562 cells, 10 uM, 30 min; active = over 0.2 and 3.5 SD of the protein, either way, in both replicates (recomputed)
[1] = compound: CN1CCN(CCOc2cc(OC3CCOCC3)c3c(Nc4c(Cl)ccc5c4OCO5)ncnc3c2)CC1 [saracatinib]
Method in brief: (§1)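 For each measurement, 10 μM compound was applied for 30 min to K562 cells at 2×10^6 cells/mL. Aliquots were heated for 3 min across 48°C-58°C, pooled, and extracted in PBS with 0.5% NP-40 at 4°C; the supernatant after 21,000xg for 90 min was soluble protein. This was quantified by TMTpro 16plex LC-MS/MS with channel sums equalised, and thermal stability was reported relative to control samples from duplicates, on a log2 fold-change scale.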

[2] = compound: CN1CCN(c2nc(C3=C(c4c[nH]c5ccccc45)C(=O)NC3=O)c3ccccc3n2)CC1 [sotrastaurin]
Method in brief: as §1

[3] = compound: CN1CC[C@H](c2c(O)cc(O)c3c(=O)cc(-c4ccccc4Cl)oc23)[C@H](O)C1 [alvocidib]
Method in brief: as §1

[4] = compound: CN1CCc2c(c3ccccc3n2Cc2ccc(C(=O)NO)cc2)C1 [Tubastatin A]
Method in brief: as §1

[5] = compound: CNC(=O)C1=CC=CC=C1NC2=NC(=NC=C2Cl)NC3=C(C=C(C=C3)N4CCOCC4)OC
Method in brief: as §1

[6] = compound: CNC(=O)c1ccc(Nc2ncc(C(F)(F)F)c(NCc3nccnc3N(C)S(C)(=O)=O)n2)cc1 [defactinib]
Method in brief: as §1

[7] = compound: CNCc1ccc(-c2[nH]c3cc(F)cc4c3c2CCNC4=O)cc1 [rucaparib]
Method in brief: as §1

[8] = compound: CNc1nc(-c2ccc3c(N)n[nH]c3c2)cc(N2C[C@@H](C(=O)NC3CCCCC3)CC[C@H]2C)n1
Method in brief: as §1

[9] = compound: COC(=O)N[C@@H](C)CNc1nccc(-c2cn(C(C)C)nc2-c2cc(Cl)cc(NS(C)(=O)=O)c2F)n1 [encorafenib]
Method in brief: as §1

[10] = compound: COC(=O)[C@H](CCSC)NC(=O)C1=C(C=C(C=C1)NC[C@H](CS)N)C2=CC=CC=C2
Method in brief: as §1

Measured: log2 fold change

RPL23 (UniProt P62829)
inactive: [1] -0.08 | [2] -0.012 | [3] 0.322 | [4] 0.1 | [5] 0.089 | [6] 0.338 | [7] 0.325 | [8] 0.115 | [9] 0.116 | [10] 0.044

RRM2 isoform 2 (UniProt P31350)
inactive: [1] 0.047 | [2] 0.008 | [3] -0.048 | [4] -0.015 | [5] -0.002 | [6] 0.015 | [7] -0.088 | [8] 0.013 | [9] -0.002 | [10] 0.039

RP2 (UniProt O75695)
inactive: [1] 0.083 | [2] -0.163 | [3] 0 | [4] 0.042 | [5] 0.037 | [6] -0.04 | [7] -0.059 | [8] -0.05 | [9] 0.037 | [10] -0.069

RRAS (UniProt P10301)
inactive: [1] 0.021 | [2] 0.041 | [3] 0.004 | [4] 0.033 | [5] 0.055 | [6] -0.041 | [7] -0.024 | [8] 0.034 | [9] -0.017 | [10] 0.037

RPL3 (UniProt P39023)
inactive: [1] -0.17 | [2] -0.023 | [3] 0.456 | [4] 0.256 | [5] 0.045 | [6] 0.607 | [7] 0.436 | [8] 0.25 | [9] 0.247 | [10] -0.031

2 successive records out of the list so far:
RPL23 (UniProt P62829)
inactive: [1] -0.08 | [2] -0.012 | [3] 0.322 | [4] 0.1 | [5] 0.089 | [6] 0.338 | [7] 0.325 | [8] 0.115 | [9] 0.116 | [10] 0.044

RRM2 isoform 2 (UniProt P31350)
inactive: [1] 0.047 | [2] 0.008 | [3] -0.048 | [4] -0.015 | [5] -0.002 | [6] 0.015 | [7] -0.088 | [8] 0.013 | [9] -0.002 | [10] 0.039

The list continues:

RPN1 (UniProt P04843)
inactive: [1] -0.02 | [2] 0 | [3] -0.016 | [4] 0.005 | [5] -0.002 | [6] -0.012 | [7] -0.016 | [8] -0.042 | [9] 0.008 | [10] 0

RPL30 (UniProt P62888)
inactive: [1] -0.139 | [2] 0.029 | [3] 0.416 | [4] 0.226 | [5] 0.049 | [6] 0.537 | [7] 0.488 | [8] 0.189 | [9] 0.242 | [10] -0.029

RPL8 (UniProt P62917)
inactive: [1] -0.215 | [2] -0.043 | [3] 0.485 | [4] 0.224 | [5] -0.006 | [6] 0.636 | [7] 0.439 | [8] 0.248 | [9] 0.216 | [10] 0.003

RPL6 (UniProt Q02878)
inactive: [1] -0.206 | [2] -0.041 | [3] 0.44 | [4] 0.248 | [5] 0.075 | [6] 0.577 | [7] 0.506 | [8] 0.261 | [9] 0.252 | [10] -0.037

RPLP2 (UniProt P05387)
inactive: [1] -0.048 | [2] -0.012 | [3] 0.434 | [4] 0.237 | [5] -0.002 | [6] 0.412 | [7] 0.336 | [8] 0.184 | [9] 0.203 | [10] -0.027

RPS11 (UniProt P62280)
inactive: [1] -0.095 | [2] 0 | [3] 0.343 | [4] 0.097 | [5] 0.074 | [6] 0.367 | [7] 0.258 | [8] 0.144 | [9] 0.142 | [10] 0.003

RREB1 isoform 2 (UniProt Q92766)
inactive: [1] -0.092 | [2] -0.097 | [3] 0.039 | [4] -0.17 | [5] -0.049 | [6] 0.065 | [7] 0.284 | [8] 0.041 | [9] 0.188 | [10] 0.235

RPSA (UniProt P08865)
inactive: [1] -0.005 | [2] 0.078 | [3] 0.099 | [4] 0.01 | [5] 0.129 | [6] 0.067 | [7] 0.053 | [8] 0.004 | [9] -0.015 | [10] 0.028

RPL14 (UniProt P50914)
inactive: [1] -0.159 | [2] -0.062 | [3] 0.433 | [4] 0.251 | [5] 0.094 | [6] 0.625 | [7] 0.545 | [8] 0.271 | [9] 0.272 | [10] -0.066

RPL26L1 (UniProt Q9UNX3)
inactive: [1] -0.104 | [2] -0.028 | [3] 0.386 | [4] 0.169 | [5] 0.096 | [6] 0.376 | [7] 0.407 | [8] 0.147 | [9] 0.116 | [10] -0.04

RPL10A (UniProt P62906)
inactive: [1] -0.178 | [2] -0.011 | [3] 0.486 | [4] 0.263 | [5] 0.056 | [6] 0.641 | [7] 0.422 | [8] 0.262 | [9] 0.232 | [10] -0.024

RPS7 (UniProt P62081)
inactive: [1] -0.091 | [2] 0.003 | [3] 0.212 | [4] 0.107 | [5] 0.075 | [6] 0.279 | [7] 0.231 | [8] 0.093 | [9] 0.073 | [10] -0.006

RPS10 (UniProt P46783)
inactive: [1] -0.04 | [2] 0.012 | [3] 0.162 | [4] 0.038 | [5] 0.062 | [6] 0.114 | [7] 0.131 | [8] 0.047 | [9] 0.019 | [10] 0.004

RPS19BP1 (UniProt Q86WX3)
inactive: [1] -0.048 | [2] -0.048 | [3] 0.242 | [4] 0.053 | [5] -0.046 | [6] 0.088 | [7] 0.222 | [8] 0.176 | [9] 0.167 | [10] -0.067

RRAGB (UniProt Q5VZM2)
inactive: [1] 0.076 | [2] 0.028 | [4] -0.03 | [5] -0.01 | [6] -0.075 | [7] -0.009 | [8] -0.009 | [9] 0.06 | [10] 0.084

RPRD1B (UniProt Q9NQG5)
inactive: [1] -0.014 | [2] -0.126 | [4] -0.039 | [5] 0.055 | [6] -0.09 | [7] -0.116 | [8] -0.011 | [9] 0.04 | [10] -0.004

RNF40 (UniProt O75150)
inactive: [1] -0.2 | [2] -0.344 | [3] -0.232 | [4] 0.264 | [5] -0.11 | [6] -0.017 | [8] 0.188 | [10] -0.011

RPS28 (UniProt P62857)
inactive: [1] -0.066 | [2] 0.01 | [3] 0.114 | [4] -0.04 | [5] -0.021 | [6] 0.089 | [7] 0.233 | [8] 0.053 | [9] -0.068 | [10] 0.071

RPP25L (UniProt Q8N5L8)
inactive: [1] -0.079 | [2] -0.087 | [4] 0.026 | [5] 0.062 | [6] 0.002 | [7] -0.032 | [8] -0.158 | [9] 0.014 | [10] 0.058

RPL36A (UniProt P83881)
inactive: [1] -0.219 | [2] 0.016 | [3] 0.381 | [4] 0.167 | [5] 0.073 | [6] 0.299 | [7] 0.34 | [8] 0.101 | [9] 0.188 | [10] -0.004

RPL3L (UniProt Q92901)
inactive: [1] -0.194 | [2] -0.049 | [3] 0.492 | [4] 0.141 | [5] 0.1 | [6] 0.68 | [7] 0.45 | [8] 0.24 | [9] 0.268 | [10] -0.047

RPS5 (UniProt P46782)
inactive: [1] -0.038 | [2] 0.018 | [4] 0.084 | [5] 0.065 | [6] 0.121 | [7] 0.096 | [8] 0.103 | [9] 0.054 | [10] -0.026

RP9 (UniProt Q8TA86)
inactive: [1] -0.131 | [2] -0.039 | [3] 0.258 | [4] 0.09 | [5] -0.175 | [7] 0.209 | [8] -0.018 | [9] 0.117

RPL24 (UniProt P83731)
inactive: [1] -0.069 | [2] -0.034 | [3] 0.337 | [4] 0.108 | [5] 0.061 | [6] 0.358 | [7] 0.388 | [8] 0.157 | [9] 0.104 | [10] -0.038
